Measurements taken from article PMC13049129.

By UniProt entry, the sequences of proteins in these tests, tags left out.
UniProt Q13242: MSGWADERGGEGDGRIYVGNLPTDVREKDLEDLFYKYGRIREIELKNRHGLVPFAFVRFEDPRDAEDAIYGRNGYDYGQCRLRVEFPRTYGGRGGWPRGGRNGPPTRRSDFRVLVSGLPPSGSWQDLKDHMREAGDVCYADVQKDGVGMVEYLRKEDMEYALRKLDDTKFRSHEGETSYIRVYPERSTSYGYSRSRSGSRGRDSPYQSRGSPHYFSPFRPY

Target: T1, recombinant zebrafish Endouc fused with Flag tag (Endouc-Flag), produced in Sf21 insect cells (zebrafish) (UniProt Q1LUM3)
T1 sequence: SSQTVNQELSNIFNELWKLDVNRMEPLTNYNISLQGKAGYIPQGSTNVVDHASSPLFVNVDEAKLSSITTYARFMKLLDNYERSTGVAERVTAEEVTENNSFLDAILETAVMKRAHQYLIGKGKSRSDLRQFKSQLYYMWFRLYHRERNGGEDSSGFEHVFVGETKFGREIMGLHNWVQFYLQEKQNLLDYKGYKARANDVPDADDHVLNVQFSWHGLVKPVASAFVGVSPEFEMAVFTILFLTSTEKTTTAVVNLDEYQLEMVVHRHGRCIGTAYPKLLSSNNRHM
Experiment: affinity purification with mass spectrometry; Endouc-Flag produced in Sf21 mixed with whole protein extracts of HEK293T cells in IP lysis buffer, anti-FLAG M2-agarose beads overnight, 6 washes, elution with 0.5 mg/mL 3xFlag peptide at 4°C, SDS-PAGE, gel slices, LC-MS/MS; pull-down without Endouc-Flag as negative control

## Srsf9, endogenous in HEK293T total lysate (from UniProt Q13242 1-221)
  binding: binds

No constants are given. Whether binding was seen depends on the method and setting. In cells and extracts the contact can be indirect. A yes stands for co-enrichment or nearness to the bait. Other partners may have been found. Sequences can lack the tags named with a protein.
